doi:10.1101/2025.11.24.690153
The exact form of at least one protein or probe is not confirmed. At least one result comes from cells or an extract, where the contact may be indirect. For part of these data: Where a protein sequence is shown, tags need not be part of it.

What was measured:
Test in all cases: pull-down
[1] = biological target: T1, ComGC (lysate) (Bacillus subtilis PY79 delta-rok) (UniProt P25955); settings: protein in an extract
T1 sequence (looked up, limits assumed): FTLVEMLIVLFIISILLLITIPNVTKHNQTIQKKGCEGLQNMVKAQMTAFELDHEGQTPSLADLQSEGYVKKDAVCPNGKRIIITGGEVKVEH

[2] = biological target: T2, DprA (Bacillus subtilis PY79 delta-rok) (UniProt P39813); settings: protein in an extract
T2 sequence (looked up, limits assumed): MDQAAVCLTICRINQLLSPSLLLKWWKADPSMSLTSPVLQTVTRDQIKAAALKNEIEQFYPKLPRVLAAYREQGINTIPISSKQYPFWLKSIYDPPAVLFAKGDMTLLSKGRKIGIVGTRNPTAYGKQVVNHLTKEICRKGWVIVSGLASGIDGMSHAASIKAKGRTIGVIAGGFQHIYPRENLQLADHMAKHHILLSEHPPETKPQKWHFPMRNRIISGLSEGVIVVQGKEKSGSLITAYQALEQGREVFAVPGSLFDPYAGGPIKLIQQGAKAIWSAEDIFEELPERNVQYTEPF

[3] = biological target: T3, RecA (Bacillus subtilis PY79 delta-rok) (UniProt P16971); settings: protein in an extract
T3 sequence (looked up, limits assumed): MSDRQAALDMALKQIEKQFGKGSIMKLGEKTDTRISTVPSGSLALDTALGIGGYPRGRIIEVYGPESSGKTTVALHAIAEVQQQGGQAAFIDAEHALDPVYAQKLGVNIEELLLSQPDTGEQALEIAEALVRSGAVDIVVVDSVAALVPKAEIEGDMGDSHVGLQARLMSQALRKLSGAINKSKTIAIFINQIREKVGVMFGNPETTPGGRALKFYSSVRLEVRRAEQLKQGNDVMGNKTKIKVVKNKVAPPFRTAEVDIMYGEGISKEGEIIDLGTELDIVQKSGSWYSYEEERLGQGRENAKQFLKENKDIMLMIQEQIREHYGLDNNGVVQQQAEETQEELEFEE

[4] = biological target: T4, SsbA (Bacillus subtilis PY79 delta-rok) (UniProt P37455); settings: protein in an extract
T4 sequence (looked up, limits assumed): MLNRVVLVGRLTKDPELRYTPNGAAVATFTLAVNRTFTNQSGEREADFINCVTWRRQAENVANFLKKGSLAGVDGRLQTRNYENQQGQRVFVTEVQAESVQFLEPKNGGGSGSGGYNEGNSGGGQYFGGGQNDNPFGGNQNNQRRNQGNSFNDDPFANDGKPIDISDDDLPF

[5] = biological target: T5, YhaM (Bacillus subtilis PY79 delta-rok) (UniProt O07521); settings: protein in an extract
T5 sequence (looked up, limits assumed): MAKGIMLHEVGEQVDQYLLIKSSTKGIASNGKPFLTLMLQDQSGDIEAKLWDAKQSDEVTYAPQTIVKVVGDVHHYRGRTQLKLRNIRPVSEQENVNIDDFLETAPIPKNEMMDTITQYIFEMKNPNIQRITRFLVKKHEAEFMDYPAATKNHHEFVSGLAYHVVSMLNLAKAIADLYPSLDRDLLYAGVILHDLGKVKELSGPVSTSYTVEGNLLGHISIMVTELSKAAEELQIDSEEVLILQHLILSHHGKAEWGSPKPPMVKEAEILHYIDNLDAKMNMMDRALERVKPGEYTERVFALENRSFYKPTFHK

[6] = biological target: T6, ComGF (Bacillus subtilis PY79 delta-rok) (UniProt P25958); settings: protein in an extract
T6 sequence (looked up, limits assumed): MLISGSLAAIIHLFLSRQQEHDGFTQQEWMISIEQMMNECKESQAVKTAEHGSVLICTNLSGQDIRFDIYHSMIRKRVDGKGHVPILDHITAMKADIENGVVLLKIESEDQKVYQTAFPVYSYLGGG

[7] = biological target: T7, SsbB (Bacillus subtilis PY79 delta-rok) (UniProt C0SPB6); settings: protein in an extract
T7 sequence (looked up, limits assumed): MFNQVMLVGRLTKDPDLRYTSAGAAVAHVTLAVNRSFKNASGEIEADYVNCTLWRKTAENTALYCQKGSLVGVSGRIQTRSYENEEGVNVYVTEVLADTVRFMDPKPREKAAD

[8] = biological target: ComEA (Bacillus subtilis PY79 delta-rok) (UniProt P39694); settings: protein in an extract; label: biotin on strand 1

Measured: binding result

TCACAGTGAAAGTTAGTGTGAACTTGCCCCATTTATTGTA [pulldown 40 nt ssDNA]
binds: [1] | [2] | [3] | [4] | [5] | [6] | [7]

TCACAGTGAAAGTTAGTGTGAACTTGCCCCATTTATTGTA (double strand) [pulldown 40 bp dsDNA]
binds: [1]; label: biotin on strand 1 | [8]
